The target of test [1] is T1, Ectopically expressed RECK (Ad.RECK, adenoviral vector expressing human RECK cDNA under the CMV promoter) (human) (UniProt O95980).
T1 sequence: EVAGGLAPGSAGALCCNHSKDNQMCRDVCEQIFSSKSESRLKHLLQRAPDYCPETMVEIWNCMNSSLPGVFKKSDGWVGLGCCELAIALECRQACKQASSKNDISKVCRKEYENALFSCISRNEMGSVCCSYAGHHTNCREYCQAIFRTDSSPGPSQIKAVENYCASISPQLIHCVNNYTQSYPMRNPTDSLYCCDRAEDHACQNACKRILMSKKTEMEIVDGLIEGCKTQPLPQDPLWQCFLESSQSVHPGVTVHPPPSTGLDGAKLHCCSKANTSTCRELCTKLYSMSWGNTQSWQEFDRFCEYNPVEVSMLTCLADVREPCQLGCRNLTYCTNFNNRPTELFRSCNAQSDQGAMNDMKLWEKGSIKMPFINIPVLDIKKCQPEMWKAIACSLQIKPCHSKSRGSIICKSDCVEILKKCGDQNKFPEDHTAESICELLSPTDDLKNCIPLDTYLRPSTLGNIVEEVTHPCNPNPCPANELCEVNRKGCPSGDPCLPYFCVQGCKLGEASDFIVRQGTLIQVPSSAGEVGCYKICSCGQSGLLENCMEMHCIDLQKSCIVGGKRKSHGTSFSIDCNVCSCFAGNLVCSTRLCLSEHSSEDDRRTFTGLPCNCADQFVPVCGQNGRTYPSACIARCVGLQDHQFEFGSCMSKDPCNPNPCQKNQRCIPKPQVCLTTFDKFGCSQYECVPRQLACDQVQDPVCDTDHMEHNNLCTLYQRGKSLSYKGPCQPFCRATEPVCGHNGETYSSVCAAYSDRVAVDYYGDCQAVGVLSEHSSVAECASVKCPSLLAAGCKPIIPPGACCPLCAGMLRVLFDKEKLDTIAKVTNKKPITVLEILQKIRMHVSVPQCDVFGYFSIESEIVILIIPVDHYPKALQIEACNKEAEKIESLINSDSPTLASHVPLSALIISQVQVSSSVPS
Kind of test: co-IP; whole cell extracts of primary human aortic SMC incubated with anti-RECK antibodies immobilized on agarose beads; washed three times in 50 mM Tris-Cl, 150 mM NaCl, 0.1% Nonidet P-40; eluted by boiling in SDS sample buffer; IB with LIFR or gp130 antibodies; cells at basal conditions, exposed to CT-1 (15 min), or transduced with Ad.RECK or Ad.GFP.

The chains behind the UniProt entries cited, without tags or fusion partners. Residues count along the entry.
UniProt P40189, residues 23-918: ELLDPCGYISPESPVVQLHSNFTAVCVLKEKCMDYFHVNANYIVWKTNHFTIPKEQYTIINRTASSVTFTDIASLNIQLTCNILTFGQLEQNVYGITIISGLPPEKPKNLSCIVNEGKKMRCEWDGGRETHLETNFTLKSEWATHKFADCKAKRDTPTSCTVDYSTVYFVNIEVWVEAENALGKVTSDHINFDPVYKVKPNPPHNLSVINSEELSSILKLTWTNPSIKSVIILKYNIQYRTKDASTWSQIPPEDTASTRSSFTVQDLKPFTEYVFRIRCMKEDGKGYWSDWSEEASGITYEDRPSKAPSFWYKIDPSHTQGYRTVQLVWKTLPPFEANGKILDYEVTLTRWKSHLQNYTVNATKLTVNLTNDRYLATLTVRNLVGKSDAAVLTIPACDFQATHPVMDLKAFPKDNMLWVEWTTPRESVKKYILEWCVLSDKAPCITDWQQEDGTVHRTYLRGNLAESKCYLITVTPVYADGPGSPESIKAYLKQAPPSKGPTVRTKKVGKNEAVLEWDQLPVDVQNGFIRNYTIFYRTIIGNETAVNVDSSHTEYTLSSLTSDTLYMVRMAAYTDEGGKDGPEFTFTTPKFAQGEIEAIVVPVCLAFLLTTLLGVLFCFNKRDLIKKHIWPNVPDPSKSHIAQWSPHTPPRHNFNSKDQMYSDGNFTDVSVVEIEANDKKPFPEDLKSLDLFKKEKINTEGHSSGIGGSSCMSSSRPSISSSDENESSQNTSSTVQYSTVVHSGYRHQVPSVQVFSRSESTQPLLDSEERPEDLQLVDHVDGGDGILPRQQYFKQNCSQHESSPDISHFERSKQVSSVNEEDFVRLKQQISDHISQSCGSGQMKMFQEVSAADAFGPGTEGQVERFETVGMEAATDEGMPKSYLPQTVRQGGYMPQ

Test [2] addresses T2, Reversion-inducing cysteine-rich protein with Kazal motifs (RECK), endogenous in human aortic SMC (human (endogenous in primary human aortic SMC)) (UniProt O95980).
T2 sequence: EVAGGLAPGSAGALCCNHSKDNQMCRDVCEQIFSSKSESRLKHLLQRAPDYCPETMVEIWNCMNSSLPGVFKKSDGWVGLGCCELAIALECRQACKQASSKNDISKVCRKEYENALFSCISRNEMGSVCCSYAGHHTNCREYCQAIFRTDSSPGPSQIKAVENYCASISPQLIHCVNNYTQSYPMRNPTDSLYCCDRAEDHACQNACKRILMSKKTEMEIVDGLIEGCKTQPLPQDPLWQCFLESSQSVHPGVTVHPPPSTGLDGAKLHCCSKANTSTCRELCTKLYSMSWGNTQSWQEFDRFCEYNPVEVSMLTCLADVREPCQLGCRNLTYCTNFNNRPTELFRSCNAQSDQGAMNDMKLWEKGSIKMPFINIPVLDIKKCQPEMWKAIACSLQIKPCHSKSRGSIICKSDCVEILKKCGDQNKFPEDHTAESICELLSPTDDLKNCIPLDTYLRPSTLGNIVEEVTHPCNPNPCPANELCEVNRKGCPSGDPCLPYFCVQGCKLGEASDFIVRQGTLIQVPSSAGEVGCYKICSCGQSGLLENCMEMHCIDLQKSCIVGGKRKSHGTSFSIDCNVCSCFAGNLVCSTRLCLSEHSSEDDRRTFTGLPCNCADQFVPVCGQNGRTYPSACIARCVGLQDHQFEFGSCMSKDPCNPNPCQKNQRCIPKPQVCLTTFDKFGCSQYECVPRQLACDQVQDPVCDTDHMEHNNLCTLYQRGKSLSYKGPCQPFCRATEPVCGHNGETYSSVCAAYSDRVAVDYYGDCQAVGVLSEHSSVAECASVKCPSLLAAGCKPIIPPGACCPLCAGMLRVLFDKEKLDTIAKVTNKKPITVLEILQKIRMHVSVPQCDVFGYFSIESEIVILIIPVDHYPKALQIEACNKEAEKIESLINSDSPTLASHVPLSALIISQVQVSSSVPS
Described as above.

This is an account of results in article PMC10567511.

Results are given in words; binding and its absence hold for the method and conditions named. In cells and extracts the contact can be indirect. Some results given as binding are weak or reduced against the parent protein; the word gives no strength. For some of these results: Sequences can lack the tags named with a protein.

On to “Glycoprotein 130 (gp130; interleukin 6 cytokine family signal transducer/IL6ST), endogenous in human aortic SMC (from UniProt P40189 23-918) (receptor)”, for which the binding entry in test [1] and in test [2] was “binds” each time.

B1: Leukemia inhibitory factor receptor (LIFR), endogenous in human aortic SMC (receptor, UniProt P42702 45-1097)
chain: QKKGAPHDLKCVTNNLQVWNCSWKAPSGTGRGTDYEVCIENRSRSCYQLEKTSIKIPALSHGDYEITINSLHDFGSSTSKFTLNEQNVSLIPDTPEILNLSADFSTSTLYLKWNDRGSVFPHRSNVIWEIKVLRKESMELVKLVTHNTTLNGKDTLHHWSWASDMPLECAIHFVEIRCYIDNLHFSGLEEWSDWSPVKNISWIPDSQTKVFPQDKVILVGSDITFCCVSQEKVLSALIGHTNCPLIHLDGENVAIKIRNISVSASSGTNVVFTTEDNIFGTVIFAGYPPDTPQQLNCETHDLKEIICSWNPGRVTALVGPRATSYTLVESFSGKYVRLKRAEAPTNESYQLLFQMLPNQEIYNFTLNAHNPLGRSQSTILVNITEKVYPHTPTSFKVKDINSTAVKLSWHLPGNFAKINFLCEIEIKKSNSVQEQRNVTIKGVENSSYLVALDKLNPYTLYTFRIRCSTETFWKWSKWSNKKQHLTTEASPSKGPDTWREWSSDGKNLIIYWKPLPINEANGKILSYNVSCSSDEETQSLSEIPDPQHKAEIRLDKNDYIISVVAKNSVGSSPPSKIASMEIPNDDLKIEQVVGMGKGILLTWHYDPNMTCDYVIKWCNSSRSEPCLMDWRKVPSNSTETVIESDEFRPGIRYNFFLYGCRNQGYQLLRSMIGYIEELAPIVAPNFTVEDTSADSILVKWEDIPVEELRGFLRGYLFYFGKGERDTSKMRVLESGRSDIKVKNITDISQKTLRIADLQGKTSYHLVLRAYTDGGVGPEKSMYVVTKENSVGLIIAILIPVAVAVIVGVVTSILCYRKREWIKETFYPDIPNPENCKALQFQKSVCEGSSALKTLEMNPCTPNNVEVLETRSAFPKIEDTEIISPVAERPEDRSDAEPENHVVVSYCPPIIEEEIPNPAADEAGGTAQVIYIDVQSMYQPQAKPEEEQENDPVGGAGYKPQMHLPINSTVEDIAAEEDLDKTAGYRPQANVNTWNLVSPDSPRSIDSNSEIVSFGSPCSINSRQFLIPPKDEDSPKSNGGGWSFTNFFQNKPND
Take B1: the binding result in test [1] and in test [2] was “binds” each time.
